This is an account of results in PMC8126939, “The TBC1D31/praja2 complex controls primary ciliogenesis through PKA‐directed OFD1 ubiquitylation” (The EMBO Journal, 2021).

One test has as its target T1, flag-OFD1 (human) (UniProt O75665).
T1 sequence: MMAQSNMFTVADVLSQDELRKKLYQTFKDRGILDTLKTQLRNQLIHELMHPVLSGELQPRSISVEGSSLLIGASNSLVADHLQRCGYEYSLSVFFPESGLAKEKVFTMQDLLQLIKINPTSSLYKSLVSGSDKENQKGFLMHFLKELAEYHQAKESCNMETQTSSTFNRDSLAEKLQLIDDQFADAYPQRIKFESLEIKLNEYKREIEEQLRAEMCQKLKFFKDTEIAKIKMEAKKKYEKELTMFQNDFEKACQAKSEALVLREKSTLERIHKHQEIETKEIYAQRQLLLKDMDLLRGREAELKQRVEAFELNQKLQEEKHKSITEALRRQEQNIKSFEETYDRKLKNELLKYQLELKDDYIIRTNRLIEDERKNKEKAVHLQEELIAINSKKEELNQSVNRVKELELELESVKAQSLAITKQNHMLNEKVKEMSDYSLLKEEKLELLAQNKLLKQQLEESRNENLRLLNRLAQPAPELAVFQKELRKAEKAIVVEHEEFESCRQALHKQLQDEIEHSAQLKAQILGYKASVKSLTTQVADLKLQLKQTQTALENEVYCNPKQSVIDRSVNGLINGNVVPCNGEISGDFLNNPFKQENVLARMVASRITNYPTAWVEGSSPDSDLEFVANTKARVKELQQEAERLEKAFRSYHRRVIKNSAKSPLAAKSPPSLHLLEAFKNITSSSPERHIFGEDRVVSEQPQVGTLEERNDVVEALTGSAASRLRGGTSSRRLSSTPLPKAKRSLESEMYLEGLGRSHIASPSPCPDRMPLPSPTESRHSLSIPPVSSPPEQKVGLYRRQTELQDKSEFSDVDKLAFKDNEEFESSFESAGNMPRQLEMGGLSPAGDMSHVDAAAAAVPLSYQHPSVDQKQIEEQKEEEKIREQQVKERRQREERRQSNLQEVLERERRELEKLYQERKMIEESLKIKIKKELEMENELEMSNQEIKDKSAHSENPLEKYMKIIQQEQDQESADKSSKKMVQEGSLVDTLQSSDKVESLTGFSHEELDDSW
In words: co-IP; lysates of transfected HEK293 cells (150 mM NaCl, 50 mM Tris-HCl pH 7.5, 1 mM EDTA, 0.5% NP40), overnight with anti-flag antibody or control IgG, immunoblot.

Test [1] has as its target T2, endogenous TBC1D31 (cell lysates) (not stated (endogenous in cells that the legend does not name)) (UniProt Q96DN5).
T2 sequence: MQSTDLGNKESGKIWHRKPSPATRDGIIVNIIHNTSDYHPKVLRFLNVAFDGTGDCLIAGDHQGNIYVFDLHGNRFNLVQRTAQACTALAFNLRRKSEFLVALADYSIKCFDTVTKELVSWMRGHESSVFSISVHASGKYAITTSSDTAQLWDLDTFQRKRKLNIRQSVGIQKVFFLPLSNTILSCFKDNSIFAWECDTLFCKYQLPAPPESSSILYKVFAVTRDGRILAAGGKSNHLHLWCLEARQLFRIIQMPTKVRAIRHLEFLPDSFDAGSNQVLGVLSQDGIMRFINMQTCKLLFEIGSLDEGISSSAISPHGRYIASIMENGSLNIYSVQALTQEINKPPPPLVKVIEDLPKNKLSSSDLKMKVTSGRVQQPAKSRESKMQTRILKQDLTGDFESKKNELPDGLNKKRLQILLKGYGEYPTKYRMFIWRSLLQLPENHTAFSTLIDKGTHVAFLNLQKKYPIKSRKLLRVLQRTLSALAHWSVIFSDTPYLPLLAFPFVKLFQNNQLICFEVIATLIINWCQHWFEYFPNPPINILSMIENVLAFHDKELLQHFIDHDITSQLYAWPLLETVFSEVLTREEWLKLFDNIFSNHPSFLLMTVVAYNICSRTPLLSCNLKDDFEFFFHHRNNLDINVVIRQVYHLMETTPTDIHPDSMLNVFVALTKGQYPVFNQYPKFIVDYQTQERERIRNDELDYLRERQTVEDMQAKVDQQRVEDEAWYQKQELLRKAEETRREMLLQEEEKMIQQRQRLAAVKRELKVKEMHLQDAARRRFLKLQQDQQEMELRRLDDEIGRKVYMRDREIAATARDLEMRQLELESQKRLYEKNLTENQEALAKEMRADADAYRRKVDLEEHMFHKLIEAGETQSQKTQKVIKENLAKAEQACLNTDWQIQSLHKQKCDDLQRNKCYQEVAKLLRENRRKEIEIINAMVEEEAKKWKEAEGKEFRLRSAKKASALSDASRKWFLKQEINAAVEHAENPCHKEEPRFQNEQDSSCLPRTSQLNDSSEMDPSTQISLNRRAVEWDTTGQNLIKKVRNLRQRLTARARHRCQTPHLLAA
In words: co-IP; endogenous proteins from cell lysates, immunoprecipitated with antibodies raised against residues 239-358 of human TBC1D31.

In test [2] the target is T3, endogenous TBC1D31 (mouse brain) (mouse (endogenous in mouse brain)) (UniProt Q6NXY1).
T3 sequence: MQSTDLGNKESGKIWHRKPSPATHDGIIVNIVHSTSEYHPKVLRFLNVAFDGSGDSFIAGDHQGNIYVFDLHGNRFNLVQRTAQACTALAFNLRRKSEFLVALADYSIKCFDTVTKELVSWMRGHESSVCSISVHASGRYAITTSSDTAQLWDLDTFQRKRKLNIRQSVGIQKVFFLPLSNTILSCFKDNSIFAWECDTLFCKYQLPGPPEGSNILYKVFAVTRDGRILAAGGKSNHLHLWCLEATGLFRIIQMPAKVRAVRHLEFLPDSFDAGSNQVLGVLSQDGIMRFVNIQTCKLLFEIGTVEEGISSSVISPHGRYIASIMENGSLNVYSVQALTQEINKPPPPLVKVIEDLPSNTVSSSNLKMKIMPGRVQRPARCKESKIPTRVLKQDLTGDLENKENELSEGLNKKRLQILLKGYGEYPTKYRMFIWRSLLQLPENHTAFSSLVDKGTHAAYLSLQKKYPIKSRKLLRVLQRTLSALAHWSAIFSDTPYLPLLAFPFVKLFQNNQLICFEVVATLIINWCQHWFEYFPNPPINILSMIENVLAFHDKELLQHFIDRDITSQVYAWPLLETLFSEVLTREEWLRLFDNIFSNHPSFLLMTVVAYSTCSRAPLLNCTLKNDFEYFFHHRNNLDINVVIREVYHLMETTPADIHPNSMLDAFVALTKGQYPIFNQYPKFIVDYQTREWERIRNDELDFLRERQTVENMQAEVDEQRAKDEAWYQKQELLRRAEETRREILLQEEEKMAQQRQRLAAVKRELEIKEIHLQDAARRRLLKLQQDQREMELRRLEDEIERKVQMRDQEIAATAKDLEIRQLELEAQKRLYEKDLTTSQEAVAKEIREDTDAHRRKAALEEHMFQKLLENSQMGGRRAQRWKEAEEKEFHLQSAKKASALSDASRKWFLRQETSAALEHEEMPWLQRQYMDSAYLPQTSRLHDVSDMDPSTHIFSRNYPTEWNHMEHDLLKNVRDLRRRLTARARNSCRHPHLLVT
In words: co-IP; total lysates from mouse brain immunoprecipitated with anti-TBC1D31 antibodies or control IgG, immunoblot. (In general: Immunoblotting shows a protein as a band on a membrane.)

For test [3], the target named is T4, GST-praja2_(590–630) (human) (UniProt O43164).
T4 sequence (chain, fluorescent dye on primary amines (NHS-ester labelling)): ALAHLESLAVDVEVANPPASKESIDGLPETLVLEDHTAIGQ
In words: MST; Monolith NT 115; GST-praja2 fragments labelled with NHS-ester dye, TBC1D31 peptides titrated (16-point 1:1 dilution); 25°C, 20 mM NaP, 200 mM NaCl, 1 mM DTT, 0.05% Tween-20, pH 7.4; both purified.

Results are given in words; binding and its absence hold for the method and conditions named. For some assays here: Binding seen in cells or lysates may run through a third protein. Some entries that bind do so weakly or less than the wild type. For some assays here: Where a sequence is shown, tags or fusion partners need not be part of it.

B1: endogenous praja2 (HEK293) (protein, UniProt O43164 1-708)
chain: MSQYTEKEPAAMDQESGKAVWPKPAGGYQTITGRRYGRRHAYVSFKPCMTRHERSLGRAGDDYEVLELDDVPKENSSGSSPLDQVDSSLPSEPIFEKSETEIPTCGSALNQTTESSQSFVAVHHSEEGRDTLGSSTNLHNHSEGEYIPGACSASSVQNGIALVHTDSYDPDGKHGEDNDHLQLSAEVVEGSRYQESLGNTVFELENREAEAYTGLSPPVPSFNCEVRDEFEELDSVPLVKSSAGDTEFVHQNSQEIQRSSQDEMVSTKQQNNTSQERQTEHSPEDAACGPGHICSEQNTNDREKNHGSSPEQVVRPKVRKLISSSQVDQETGFNRHEAKQRSVQRWREALEVEESGSDDLLIKCEEYDGEHDCMFLDPPYSRVITQRETENNQMTSESGATAGRQEVDNTFWNGCGDYYQLYDKDEDSSECSDGEWSASLPHRFSGTEKDQSSSDESWETLPGKDENEPELQSDSSGPEEENQELSLQEGEQTSLEEGEIPWLQYNEVNESSSDEGNEPANEFAQPAFMLDGNNNLEDDSSVSEDLDVDWSLFDGFADGLGVAEAISYVDPQFLTYMALEERLAQAMETALAHLESLAVDVEVANPPASKESIDGLPETLVLEDHTAIGQEQCCPICCSEYIKDDIATELPCHHFFHKPCVSIWLQKSGTCPVCRRHFPPAVIEASAAPSSEPDPDAPPSNDSIAEAP
Regarding B1, the binding result with flag-OFD1 (human) was “binds”.

B2: endogenous praja2 (cell lysates, Fig 1E) (protein, UniProt O43164 1-708)
chain: B1 chain
As for B2, the binding entry in test [1] is “binds”.

B3: endogenous OFD1 (mouse brain) (protein, UniProt Q80Z25 1-1017)
chain: MAQSNMPHKSDVLSQDELRKKLYQTFKDRGVLDTLQTQLRNQLIHELMHPVLSGEVKPPSISVEGSALLIGASNSLVADHLQRCGYEYSLSVFFPESGLAKEKIFTMQDLLQLIRINPSSSLYKSLISGFDKENKKGFLMSFLKELAEYYQAKESCDAETQTSTTFPSQVSLAEKFQLIDAQFADGFPHRSKLESLETKLNEYKKEVQHQLQVEMCHKLKYFREAEITKVKMEERRKYEKELAEFQNEFERTCQAKNEALISQEKNSLERIKKHREMESKEIYAQRQLLLNDIALLRGREAELKERIETFELTQKLQEEKIKSEAEALERREQNLKNIEDTYDQKLKTELLKYQLELKDDYITRTNKLLEEERKNKEKTIHLQEELTVINSKKEELSKSVKHMKEVELELESVKAQFLAISKQNHLLNEKVREMSDYSQLKEEKVELQAQNKLLKLQLEETRNENLRLLDRITQPPPELVIFQKELQKTEKAMELEHKDFETHRQALEKQLQSEIENSAQLRTQIAEYDASVKRLTVQVAELKSQLKQTQIALENEVYRNPKHSLIHSLSGLLLSGKMAPHSEDKSGDFLNVPLEQNKVIAGAVMSRVPPYVNTATEASSPESDFEFIASSTKAKVRELEQEAERLEKAFRTYYQRATQNPSTSPQPAKSPPSVNSVAALRSIASSSMDRPVSAEDRVVSEQPLGDMLKEEMSDMSKAFMGSVVSRPRRTSSSTRLSSTPHPKSRRSLDNEMYLEGLGRLHMTSSSPLLDRVSASPAASPSPCPERTAQASPVPSRHSFSGLPEQNACLYQRQTETQDKSELSNVDKQSLKDEKFEPPFRWNKTEQFEAEGLHPAGDMPGIDFAVATQSSRLISYDYPSAVQSQTGEQDEQELWELHMKERRQREEQRHNERQEALERERRELGKLEQERRMIEESLKMEMEEELEKSVQDQKDKSAHCENTLEKYMKIIQQRQEESNADKSSKKSGKECSLVDMMMPSDKDESSPGFSHEEPDDMW
Regarding B3, the binding result in test [2] is listed as “binds”.

B4: endogenous praja2 (mouse brain) (protein, UniProt Q80U04 1-707)
chain: MSQYTEKEPSVMDQESSKAAWPKPAGGYQTITGRRYGRRHAYVSFKPCMTRHERSLGRAGDDYEVLELDDVPKENTSGSSSLDQVHPALPNEPTVEKSETEISTCGPALNQSTESSPSIATVCHSEEVRETLESNTNLHNRTETEHTPAVCNVSSVQNGIMLVHTDSYDPDSKHDENGSLQLGAEAVEGGRHQKGLGRAVFELENGEAEIYADLSPSVPSLNGEISEAFEELDSAPLEKSSTADAELVHQNGQEFQRSSEDGVVRKRRQDDTDQGRQTENSTEDADCAPGHVEQNTSDRANHHGSSPEQVVRPKVRKVISSSQVDQEIGFNRHEAKQRSVQRWREALEVEECSSDDPIIKCDDYDGDHDCMFLTPTYSRVTQRETERNRVTSENGATASGRQESRDNAFWNACGEYYQLFDKDEDSSECSDGEWSASLPHRFSGTEKDQSSSDDSWETLPGKDENDPELQSDSSGPEEENQELSLQEGEQTSLEEGEIPWLQYNEVNESSSDEGNEPANEFAQPEAFMLDGNNNLEDDSSVSEDLDVDWSLFDGFADGLGVAEAISYVDPQFLTYMALEERLAQAMETALAHLESLAVDVEVANPPASKESIDGLPETLVLEDHTAIGQEQCCPICCSEYIKDDIATELPCHHFFHKPCVSIWLQKSGTCPVCRRHFPPAVIDASAAASSDPDPDASPANDNAEEAP
With B4, the binding result in test [2] was “binds”.

B5: peptide of the C-terminus segment of TBC1D31 (peptide)
peptide: WDTTGQNLIKKVRNLRQRLTARARHRCQTPHLLAA
notes: TBC1D31, human, C-terminus segment; also called WA35 TBC1D31; wild-type TBC1D31 peptide; source: synthetic peptide (bought: Shanghai Apeptide Co., Ltd)
B5: the binding result in test [3] is “no binding (tested: 500 µM)”.
